Measured values as given in PubChem BioAssay AID651768 (National Center for Advancing Translational Sciences (NCATS), 2012).
Screen size: about 360,000 compounds; about 1,700 (0.47%) were called active. The inconclusive results got no clear call from the source; some entries with a clear call stand among them for comparison. The call rests on the fitted dose curve; in most records, active means well fitted inhibition curve with a large enough effect; inconclusive means small, poorly fitted or top-dose-only effect; inactive means no such curve, though single readings can be large or run the other way. Potencies beside an inconclusive call are fits to weak or partial responses and may not hold up.

Sequences of proteins named here, by UniProt entry; tags and fusion partners are left off.
UniProt Q14191, whole entry, looked up: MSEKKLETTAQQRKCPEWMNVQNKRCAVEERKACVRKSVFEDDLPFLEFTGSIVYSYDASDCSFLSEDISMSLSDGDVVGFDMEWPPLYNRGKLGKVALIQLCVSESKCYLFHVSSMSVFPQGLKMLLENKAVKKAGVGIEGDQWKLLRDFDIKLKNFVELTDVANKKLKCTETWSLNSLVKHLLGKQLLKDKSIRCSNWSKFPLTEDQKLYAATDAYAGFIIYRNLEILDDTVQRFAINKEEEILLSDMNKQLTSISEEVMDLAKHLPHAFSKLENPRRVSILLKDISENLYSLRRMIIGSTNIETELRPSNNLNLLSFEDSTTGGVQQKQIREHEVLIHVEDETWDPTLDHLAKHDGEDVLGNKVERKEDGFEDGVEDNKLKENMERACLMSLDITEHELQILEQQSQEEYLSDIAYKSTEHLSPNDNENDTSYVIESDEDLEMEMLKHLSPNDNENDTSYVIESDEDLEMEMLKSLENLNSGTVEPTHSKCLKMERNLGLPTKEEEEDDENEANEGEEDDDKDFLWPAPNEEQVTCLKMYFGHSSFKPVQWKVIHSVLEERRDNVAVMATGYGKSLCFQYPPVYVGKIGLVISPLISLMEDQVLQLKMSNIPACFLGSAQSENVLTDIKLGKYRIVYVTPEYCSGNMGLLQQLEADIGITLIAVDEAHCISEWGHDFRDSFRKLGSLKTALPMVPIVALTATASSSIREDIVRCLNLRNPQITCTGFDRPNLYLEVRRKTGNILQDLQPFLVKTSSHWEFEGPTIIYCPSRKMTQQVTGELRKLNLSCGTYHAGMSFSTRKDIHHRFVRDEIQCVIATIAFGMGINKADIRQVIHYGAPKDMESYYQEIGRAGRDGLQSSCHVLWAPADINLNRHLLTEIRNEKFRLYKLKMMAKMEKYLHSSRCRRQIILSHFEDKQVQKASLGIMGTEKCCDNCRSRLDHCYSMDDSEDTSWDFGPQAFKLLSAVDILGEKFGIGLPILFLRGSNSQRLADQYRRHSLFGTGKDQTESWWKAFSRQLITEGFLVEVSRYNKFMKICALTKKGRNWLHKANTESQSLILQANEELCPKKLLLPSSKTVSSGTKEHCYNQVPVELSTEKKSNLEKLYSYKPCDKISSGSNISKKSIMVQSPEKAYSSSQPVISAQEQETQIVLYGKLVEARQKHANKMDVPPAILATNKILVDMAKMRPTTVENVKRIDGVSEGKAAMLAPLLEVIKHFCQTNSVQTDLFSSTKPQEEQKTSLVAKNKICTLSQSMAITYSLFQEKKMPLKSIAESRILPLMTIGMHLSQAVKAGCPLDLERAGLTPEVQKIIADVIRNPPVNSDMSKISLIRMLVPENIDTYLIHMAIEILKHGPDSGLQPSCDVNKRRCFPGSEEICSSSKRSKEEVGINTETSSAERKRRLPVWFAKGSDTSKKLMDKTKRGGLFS

What follows are molecules tested against Bifunctional 3'-5' exonuclease/ATP-dependent helicase WRN (Homo sapiens) (UniProt Q14191) (assay: qHTS for Inhibitors of WRN Helicase). Details: WRN helicase unwinding, fluorescent forked duplex, kinetic; series mostly up to 114 µM.
Summary of the method: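 Screening of the MLSMR collection measured strand separation of a quenched forked DNA duplex (100 nM) by 20 nM WRN with 2 mM ATP, all final. Compounds were preincubated with enzyme 15 min at room temperature.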
Further: nearly all actives have a fitted effect of over 55% in size.
Potency means the concentration at half of the fitted maximal effect.

SMILES | Potency
Cc1cccc(N2C(=O)/C(=C/c3ccc(N4CCN(C)CC4)o3)C(=O)NC2=S)c1C | active: 31.6 µM
Cc1cc(/C=C2\C(=O)NC(=O)N(Cc3ccccc3)C2=O)c(C)n1-c1ccc(Cl)c(C(=O)O)c1 | active: 28.2 µM
Cc1cc(/C=C2\C(=O)NC(=O)N(Cc3ccccc3Cl)C2=O)c(C)n1-c1ccc(C(=O)O)cc1 | active: 56.2 µM
COc1ccc(OCc2nnc(SCC(=O)NCC3CCCO3)n2N)cc1 (stereo not given) | inconclusive: 22.4 µM [inhibitor, full curve]
CNc1cc(Cl)c2nonc2c1[N+](=O)[O-] | inconclusive: 79.4 µM [inhibitor, partial curve]
COC(=O)C1=Nc2ccccc2/C1=C\c1c(O)n(-c2cc(OC)ccc2OC)c(=O)[nH]c1=O | active: 50.1 µM
CC(C)CN(CC(C)C)c1ccc(C=C2C(=O)NC(=S)NC2=O)cc1[N+](=O)[O-] | active: 56.2 µM
Cc1cc(Oc2ccc(C(F)(F)F)cc2[N+](=O)[O-])c2c3c(c(=O)oc2c1)CCCC3 | inconclusive: 10 µM [inhibitor, partial curve]
CSc1ncc(/C=C2/C(=O)NC(=O)N(C)C2=O)cn1 | inconclusive: 44.7 µM [inhibitor, partial curve]
COc1cc2c(cc1O)C[C@H]1NCCc3cc4c(c-2c31)OCO4 | inconclusive: 20 µM [inhibitor, partial curve]
CSc1ccccc1NC(=O)CN(C)CC(=O)c1[nH]c(C)c(C(C)=O)c1C | inconclusive: 22.4 µM [inhibitor, full curve, poor fit]
NS(=O)(=O)c1ccc(CCNC(=O)c2ccc(Cl)c(S(=O)(=O)N3CCCCCC3)c2)cc1 | inconclusive: 22.4 µM [inhibitor, single point]
CCC(=O)Nc1ccccc1 | inactive
O=c1[nH]c(O)c(/C=C2\C=NN=C2c2ccccc2)c(=O)[nH]1 | inconclusive: 79.4 µM [inhibitor, partial curve]
Cn1cccc1/C=C1\C(=O)NC(=O)N(Cc2ccco2)C1=O | active: 39.8 µM
NCCc1c[nH]c2ccc(OCc3ccccc3)cc12 | inactive
COC(=O)COc1ccc(/C=C2\C(=O)NC(=S)N(c3ccc(C)cc3)C2=O)cc1OC | inactive
CC(=O)N1CN2CN(C(C)=O)CC(C(=O)c3ccc(Br)cc3)(C2)C1 | inactive
O=S(=O)(Nc1c(O)ccc2ccccc12)c1ccc(F)cc1 | active: 50.1 µM
Cc1cccc(N2C(=O)/C(=C/c3ccc(CN(CCC#N)S(C)(=O)=O)o3)C(=O)NC2=S)c1 | active: 28.2 µM
CCOC(=O)C(NS(=O)(=O)c1ccc(C)cc1)(C(F)(F)F)P(=O)(OCC(C)C)OCC(C)C (stereo not given) | inconclusive: 17.8 µM [inhibitor, full curve]
O=C(Nc1ccc(Br)cc1C(=O)O)c1ccc2c(c1)C(=O)N(Cc1ccccc1)C2=O | inconclusive: 31.6 µM [inhibitor, single point]
O=C1NC(=O)N(c2ccc3c(c2)OCO3)C(=O)/C1=C\c1ccc(-c2ccccc2C(=O)O)o1 | active: 56.2 µM

Part of the list above in order of heavy-atom count, descending:
SMILES | Potency
COC(=O)C1=Nc2ccccc2/C1=C\c1c(O)n(-c2cc(OC)ccc2OC)c(=O)[nH]c1=O | active: 50.1 µM
NCCc1c[nH]c2ccc(OCc3ccccc3)cc12 | inactive
CNc1cc(Cl)c2nonc2c1[N+](=O)[O-] | inconclusive: 79.4 µM [inhibitor, partial curve]

The list goes on.

SMILES | Potency
O=c1[nH]sc2cc(F)ccc12 | active: 31.6 µM
COc1ccc(N2C(=O)/C(=C/C=C/c3ccccc3[N+](=O)[O-])C(=O)NC2=S)cc1 | active: 25.1 µM
CNc1ccc2nc3ccccc3[n+](C)c2c1 | active: 2.99 µM
N#CC(C#N)=NNc1ccc(S(N)(=O)=O)cc1 | active: 56.2 µM
C=CCN1C(=O)/C(=C/c2ccc3c(c2)CCCN3CCC)C(=O)NC1=S | active: 56.2 µM
O=C1NC(=O)N(Cc2ccccc2)C(=O)/C1=C/c1cnc(-c2ccccc2)nc1 | inconclusive: 50.1 µM [inhibitor, partial curve]
CSc1ncc(/C=C2/C(=O)NC(=O)N(c3ccc(Cl)cc3)C2=O)cn1 | inconclusive: 50.1 µM [inhibitor, partial curve]
CCn1c(O)c(/C(C)=N/N2CCCCC2c2cccnc2)c(=O)[nH]c1=S (stereo not given) | inconclusive: 15.8 µM [inhibitor, partial curve]
COc1cccc(CN2CCC(n3nccc3NC(=O)CCOc3ccccc3)CC2)c1O | inconclusive: 89.1 µM [inhibitor, single point]
COc1ccc(CN2C(=O)NC(=O)/C(=C\c3cc(OC)c(OC)c(OC)c3)C2=O)cc1 | active: 50.1 µM
COc1cc2c(cc1OC)-c1c3c(cc4c1[C@@H](C2)N(C)CC4)OCO3 | inconclusive: 56.2 µM [inhibitor, partial curve]
COc1cccc(N2C(=O)NC(=O)/C(=C/c3ccc4c(c3)Cc3ccccc3-4)C2=O)c1 | active: 44.7 µM
Cc1ccc(/C=C2\C(=O)NC(=O)N(Cc3ccccc3Cl)C2=O)o1 | inconclusive: 79.4 µM [inhibitor, partial curve]
O=C(Cc1ccccc1)N1CCN(CCCc2ccccc2)CC1 | inconclusive: 70.8 µM [inhibitor, single point]
c1cnc(OCCN2CC2)cn1 | inconclusive: 20 µM [inhibitor, single point]
CN1C(=O)NC(=O)/C(=C\c2ccc([N+](=O)[O-])o2)C1=O | active: 25.1 µM
Cn1cccc1/C=C1\C(=O)NC(=O)N(Cc2ccccc2)C1=O | inconclusive: 50.1 µM [inhibitor, partial curve]
Cc1cccc(N2C(=O)NC(=O)/C(=C\c3ccc(N4CCOCC4)cc3)C2=O)c1 | inconclusive: 50.1 µM [inhibitor, partial curve]
Cc1ccsc1/C=C1\C(=O)NC(=S)N(C)C1=O | active: 50.1 µM
N[C@@H](Cc1cc(I)c(O)c(I)c1)C(=O)O | inconclusive: 21.2 µM [inhibitor, partial curve]
O=C1C=CC2C3C(=O)N(c4ccccc4)C(=O)C3C1N2Cc1ccccc1 (stereo not given) | inconclusive: 14.1 µM [inhibitor, single point]
CCOc1cc(C=C2C(=O)NC(=O)NC2=O)ccc1OCC(=O)N1CCOCC1 | inconclusive: 44.7 µM [inhibitor, partial curve]
